Experimental data taken from article PMC8099431.
No constants are given. Whether binding was seen depends on the method and setting. Binding seen in cells or lysates may run through a third protein. Here binding means that the protein was enriched with, or labelled near, the bait; the list need not be complete. For some of these results: Sequences can lack the tags named with a protein. Blank lines part the entries; values can stand above or below the molecule they belong to.

Amino acid sequences for entries named in this document (tags omitted). A change or cut given only in a name is not applied to a line headed by its entry.
UniProt D9PTN5: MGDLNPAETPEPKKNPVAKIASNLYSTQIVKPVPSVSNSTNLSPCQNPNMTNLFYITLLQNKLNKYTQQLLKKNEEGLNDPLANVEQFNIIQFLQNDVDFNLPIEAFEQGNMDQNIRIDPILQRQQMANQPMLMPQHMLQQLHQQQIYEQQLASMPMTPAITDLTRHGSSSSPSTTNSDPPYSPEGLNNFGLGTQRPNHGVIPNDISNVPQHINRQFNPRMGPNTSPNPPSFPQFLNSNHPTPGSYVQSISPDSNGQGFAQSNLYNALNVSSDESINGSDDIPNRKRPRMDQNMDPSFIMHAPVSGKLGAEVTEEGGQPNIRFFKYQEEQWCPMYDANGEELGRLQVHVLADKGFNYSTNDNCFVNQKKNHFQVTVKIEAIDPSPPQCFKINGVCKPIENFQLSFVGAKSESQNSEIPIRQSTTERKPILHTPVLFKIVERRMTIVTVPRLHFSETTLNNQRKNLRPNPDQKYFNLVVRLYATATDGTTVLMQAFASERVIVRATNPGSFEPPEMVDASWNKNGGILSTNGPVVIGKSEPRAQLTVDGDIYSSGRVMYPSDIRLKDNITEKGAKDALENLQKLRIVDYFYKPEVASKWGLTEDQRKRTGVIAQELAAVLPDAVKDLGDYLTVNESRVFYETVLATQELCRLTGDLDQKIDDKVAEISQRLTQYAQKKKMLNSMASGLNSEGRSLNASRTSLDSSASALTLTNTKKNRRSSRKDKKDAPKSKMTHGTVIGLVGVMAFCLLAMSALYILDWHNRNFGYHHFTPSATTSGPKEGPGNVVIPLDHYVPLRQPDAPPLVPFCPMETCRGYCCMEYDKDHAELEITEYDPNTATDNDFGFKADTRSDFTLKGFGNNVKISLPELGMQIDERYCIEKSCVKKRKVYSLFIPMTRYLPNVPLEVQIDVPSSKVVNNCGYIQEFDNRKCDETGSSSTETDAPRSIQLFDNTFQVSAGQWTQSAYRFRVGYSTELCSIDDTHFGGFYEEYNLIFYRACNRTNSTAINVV

Columns and labels:
Experiment in all cases: affinity purification with mass spectrometry; lysates of cryo-milled worms expressing the GFP-tagged protein (lysis buffer with Tris-HCl pH 8.0, NaCl, Triton-X100, glycerol); homemade anti-GFP beads, 1 h at 4°C; eluted with glycine-HCl pH 2.5; LC-MS/MS; hits ranked by WD-score against 71 unrelated IP-MS samples
[1] = target: T1, PAN-1^GFP (pan-1^GFP knock-in allele ybq47) (C. elegans) (UniProt Q9U3A0)
T1 sequence: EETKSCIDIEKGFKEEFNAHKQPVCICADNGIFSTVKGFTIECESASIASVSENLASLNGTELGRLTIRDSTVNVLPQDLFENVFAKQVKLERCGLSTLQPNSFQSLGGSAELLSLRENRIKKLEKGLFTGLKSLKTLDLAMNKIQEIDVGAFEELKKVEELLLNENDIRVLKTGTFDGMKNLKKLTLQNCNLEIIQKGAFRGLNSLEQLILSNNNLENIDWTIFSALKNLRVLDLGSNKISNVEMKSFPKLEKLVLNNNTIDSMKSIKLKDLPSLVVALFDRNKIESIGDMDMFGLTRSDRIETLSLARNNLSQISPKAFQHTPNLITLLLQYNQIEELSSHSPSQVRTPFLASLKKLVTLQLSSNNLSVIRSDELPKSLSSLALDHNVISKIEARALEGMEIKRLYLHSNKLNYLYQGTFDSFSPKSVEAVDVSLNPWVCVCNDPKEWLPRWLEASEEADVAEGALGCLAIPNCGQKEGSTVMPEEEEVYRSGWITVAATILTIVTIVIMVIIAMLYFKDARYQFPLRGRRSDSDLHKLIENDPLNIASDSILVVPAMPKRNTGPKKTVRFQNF

[2] = target: GFP::MYRF-2 (transgene myrf-2pro-GFP::myrf-2, ybqIs128) (C. elegans) (UniProt D9PTN5)
[3] = target: T2, GFP::MYRF-1::Flag (transgene myrf-1pro-GFP::myrf-1::Flag, ybqEx164) (C. elegans) (UniProt G5EFI7)
T2 sequence: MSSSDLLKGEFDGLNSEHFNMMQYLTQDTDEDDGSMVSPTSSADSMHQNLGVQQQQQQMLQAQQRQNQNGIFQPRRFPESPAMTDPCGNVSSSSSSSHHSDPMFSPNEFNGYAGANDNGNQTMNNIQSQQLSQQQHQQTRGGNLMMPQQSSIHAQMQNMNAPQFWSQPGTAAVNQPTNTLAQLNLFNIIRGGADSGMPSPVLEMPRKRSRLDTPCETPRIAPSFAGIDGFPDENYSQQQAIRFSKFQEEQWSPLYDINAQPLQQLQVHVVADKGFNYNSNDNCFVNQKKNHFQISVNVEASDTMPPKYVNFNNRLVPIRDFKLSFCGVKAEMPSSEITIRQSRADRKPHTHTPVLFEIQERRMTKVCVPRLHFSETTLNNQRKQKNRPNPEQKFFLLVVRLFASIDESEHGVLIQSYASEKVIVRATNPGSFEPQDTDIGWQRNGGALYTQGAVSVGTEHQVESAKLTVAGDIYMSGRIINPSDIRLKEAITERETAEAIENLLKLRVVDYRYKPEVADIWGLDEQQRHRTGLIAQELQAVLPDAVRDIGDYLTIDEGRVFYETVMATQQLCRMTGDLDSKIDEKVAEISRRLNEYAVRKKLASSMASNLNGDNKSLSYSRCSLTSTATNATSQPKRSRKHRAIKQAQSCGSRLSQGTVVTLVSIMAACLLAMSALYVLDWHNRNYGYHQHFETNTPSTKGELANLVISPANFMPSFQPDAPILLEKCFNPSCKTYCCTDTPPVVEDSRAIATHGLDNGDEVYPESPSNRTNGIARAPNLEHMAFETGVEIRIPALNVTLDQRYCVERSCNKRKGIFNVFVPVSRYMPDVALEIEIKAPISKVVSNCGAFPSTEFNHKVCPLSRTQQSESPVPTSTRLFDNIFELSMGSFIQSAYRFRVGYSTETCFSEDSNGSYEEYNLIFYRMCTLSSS

binding [1]: binds
Molecule: MYRF-2, endogenous (from UniProt D9PTN5-4)

binding [2]: binds | binding [3]: binds
B1: PAN-1 (M88.6), endogenous (protein, UniProt Q9U3A0 19-594)
chain: T1 sequence

binding [1]: binds
B2: MYRF-1, endogenous (protein, UniProt G5EFI7 1-931)
chain: T2 sequence
